In patent publication US20260217863A1, “ANTIBODY OR PEPTIDE BINDING SPECIFICALLY TO RNASE A, IMMUNOASSAY DEVICE AND METHOD FOR DETECTING RNASE A, AND METHOD FOR COLLECTING RNASE A” (UIF (University Industry Foundation), Yonsei University, priority 2022, published 2026):
These are yes or no findings as the source states them, for the method shown. Some binding calls cover weakened binding; strength is not graded here.

Protein sequences, listed by entry. Tags and fused reporters are not part of them. Residues count along the entry.
UniProt P61823, residues 27-150: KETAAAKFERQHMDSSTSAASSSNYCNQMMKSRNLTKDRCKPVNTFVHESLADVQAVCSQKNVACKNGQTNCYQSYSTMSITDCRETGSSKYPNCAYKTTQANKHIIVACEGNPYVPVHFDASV

Columns and labels:
[1] = biological target: Ribonuclease A (Type II-A) from bovine pancreas (bovine) (UniProt P61823); test: competitive binding analysis using ssDNA (51 bp) as a model RNA
[2] = biological target: Ribonuclease A (Type II-A) from bovine pancreas (bovine) (UniProt P61823); test: SPR, RNase A immobilized on the Au chip, peptide in solution
[3] = biological target: Ribonuclease A (Type II-A) from bovine pancreas (bovine) (UniProt P61823); test: SPR biosensor, RNase A immobilized on the Au chip

binding [1]	binding [2]	binding [3]	Binder
binds	binds	binds	YGPVGRVKRDD [Peptide-2, synthetic peptide with the CDR3 sequence of the screened clone]
binds	binds	binds	CGPDSDVMTDF [Peptide-1, synthetic peptide with the CDR3 sequence of the screened clone]
binds	binds	binds	DGTAKKSRKDD [Peptide-3, synthetic peptide with the CDR3 sequence of the screened clone]
